PMC8410842, “Heimdallarchaea encodes profilin with eukaryotic-like actin regulation and polyproline binding” (Communications Biology, 2021)
No constants are given. Whether binding was seen depends on the method and setting. Binding calls can cover weak binding; strength is not graded here.

Experiments:
[1] = target: Heimdallarchaeota LC3 profilin (heimProfilin) (Candidatus Heimdallarchaeota archaeon LC_3); assay: NMR titration; 1H-15N TROSY-HSQC; fixed heimProfilin (200 μM) or ΔN-heimProfilin (400 μM), increasing polyproline … (to 3300 or 4300 μM); 25 mM Tris-HCl pH 7.5, 50 mM NaCl, 5% glycerol; 298 K; both purified
[2] = target: ΔN-heimProfilin (Candidatus Heimdallarchaeota archaeon LC_3); assay: as above
[3] = target: ΔN-thorProfilin (Thorarchaeota (isolate Tekir-14)); assay: NMR titration; 1H-15N TROSY-HSQC; fixed thorProfilin or ΔN-thorProfilin (200 μM), increasing polyproline … (0, 5, 7 mM in the legend); 25 mM Tris-HCl pH 6.8, 150 mM NaCl; KD from fits of chemical shifts of a few residues; both purified

binding [1]: binds weakly
binding [2]: binds
binding [3]: binds
Binder: PPPAPPLPAAQ [polyproline from VASP (…)]
